# Experimental data: PubChem BioAssay AID1259424 (University of Nebraska Medical Center, 2018)
# Screen: 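Seek colon cancer survival genes behaving like KSR1, using a six-gene signature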 (primary screen)
# System: human HCT116 colon cancer cells
# Knock-down reagent: siRNA pool against human genes, 50 nM
# Measured: 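Six signature mRNAs by branched-DNA multiplex assay, scaled to two housekeeping genes and non-targeting median, log2; matched to mean KSR1 knockdown profile by Pearson correlation and euclidean distance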
# Scale: mean correlation with KSR1 profile: higher = expression change more like KSR1 knockdown; mean distance from KSR1 profile: higher = expression change less like KSR1 knockdown
# The whole screen tested about 14,000 reagents; below is a random part of them. 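Higher correlation or smaller distance means closer resemblance to KSR1 loss; control wells, including KSR1 knockdowns, recur on many plates.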 Not all columns of the deposit are shown. Not given: the time to read-out.
gene,mean correlation with KSR1 profile,mean distance from KSR1 profile
CCT5,0.0545,2.55
ABCC13,-0.674,2.26
GPR174,-0.0013,2.58
TSGA10,0.53,1.66
DLG2,-0.511,2.2
ANKRD11,-0.56,1.71

3 neighbouring reagents from above, for reference:
gene,mean correlation with KSR1 profile,mean distance from KSR1 profile
TSGA10,0.53,1.66
DLG2,-0.511,2.2
ANKRD11,-0.56,1.71

Continued:
gene,mean correlation with KSR1 profile,mean distance from KSR1 profile
PHF5A,-0.18,3.56
ADRA2A,0.801,2.63
RABGEF1,0.7,0.936
TSC22D1,0.692,1.74
SHC1,0.826,1.94
SVOP,-0.12,2.37
SKP1,-0.172,1.6
NKX2-1,0.0941,1.89
CNTNAP2,0.13,1.21
RAB9A,0.348,2.1
PPFIBP2,0.429,2.23
TRPV6,-0.108,2.68
ZWINT,-0.683,3.4
PAX3,-0.0803,2.81
